Measurements reported in PubChem BioAssay AID1259424 (University of Nebraska Medical Center, 2018)
The deposit covers about 14,000 reagents; below is a random part of them. 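Higher correlation or smaller distance means closer resemblance to KSR1 loss; control wells, including KSR1 knockdowns, recur on many plates.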 Reagent sequences are not shown. Not given: the time to read-out.

Aim: 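Seek colon cancer survival genes behaving like KSR1, using a six-gene signature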 (primary screen)
System: human HCT116 colon cancer cells
Reagent: siRNA pool against human genes, 50 nM
Measurement: 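Six signature mRNAs by branched-DNA multiplex assay, scaled to two housekeeping genes and non-targeting median, log2; matched to mean KSR1 knockdown profile by Pearson correlation and euclidean distance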
Reading the numbers: mean correlation with KSR1 profile and KSR1 correlation: higher = expression change more like KSR1 knockdown; mean distance from KSR1 profile: higher = expression change less like KSR1 knockdown

mean correlation with KSR1 profile | mean distance from KSR1 profile | KSR1 correlation, replicate 1 | KSR1 correlation, replicate 2 | KSR1 correlation, replicate 3 | target
0.162 | 1.55 | 0.369 | 0.243 | -0.0114 | PGM1 (phosphoglucomutase 1)
-0.247 | 2.81 | -0.133 | -0.429 | -0.273 | ALPL (alkaline phosphatase, biomineralization associated)
-0.388 | 3.96 | -0.466 | 0.224 | -0.404 | NKX6-2 (NK6 homeobox 2)
-0.473 | 2.09 | -0.555 | -0.288 | -0.245 | AIP (AHR interacting HSP90 co-chaperone)
-0.44 | 3.69 | -0.46 | -0.384 | -0.53 | CASP10 (caspase 10)
-0.161 | 2.94 | -0.232 | -0.135 | 0.0466 | ALOX5 (arachidonate 5-lipoxygenase)
0.449 | 2.29 | 0.372 | 0.343 | 0.508 | NIPA2 (NIPA magnesium transporter 2)
-0.314 | 2.28 | -0.174 | -0.384 | -0.101 | AP1G2 (adaptor related protein complex 1 subunit gamma 2)
-0.104 | 2.06 | 0.00477 | -0.172 | 0.0634 | AP3D1 (adaptor related protein complex 3 subunit delta 1)
-0.0726 | 1.81 | -0.326 | -0.123 | 0.266 | CRNKL1 (crooked neck pre-mRNA splicing factor 1)
-0.182 | 2.16 | -0.312 | -0.249 | 0.0219 | DOP1A (DOP1 leucine zipper like protein A)
-0.673 | 2.24 | -0.789 | -0.349 | -0.656 | TNRC6C (trinucleotide repeat containing adaptor 6C)
-0.127 | 1.52 | 0.207 | -0.223 | -0.0668 | TAF1C

Part of the list above, reformatted.
mean correlation with KSR1 profile	mean distance from KSR1 profile	KSR1 correlation, replicate 1	KSR1 correlation, replicate 2	KSR1 correlation, replicate 3	target
0.449	2.29	0.372	0.343	0.508	NIPA2 (NIPA magnesium transporter 2)
-0.314	2.28	-0.174	-0.384	-0.101	AP1G2 (adaptor related protein complex 1 subunit gamma 2)
-0.104	2.06	0.00477	-0.172	0.0634	AP3D1 (adaptor related protein complex 3 subunit delta 1)
-0.0726	1.81	-0.326	-0.123	0.266	CRNKL1 (crooked neck pre-mRNA splicing factor 1)

Next records follow.
mean correlation with KSR1 profile | mean distance from KSR1 profile | KSR1 correlation, replicate 1 | KSR1 correlation, replicate 2 | KSR1 correlation, replicate 3 | target
0.218 | 3.08 | 0.165 | 0.21 | 0.161 | PCDHA11 (protocadherin alpha 11)
0.0216 | 1.14 | 0.202 | -0.48 | 0.35 | FCER2 (Fc epsilon receptor II)
-0.471 | 1.74 | -0.824 | -0.483 | -0.257 | TSPYL2 (TSPY like 2)
0.214 | 1.9 | 0.0122 | 0.456 | -0.114 | C1R (complement C1r)
-0.652 | 2.24 | -0.704 | -0.709 | -0.469 | TRPA1
0.801 | 1.2 | 0.802 | 0.736 | 0.803 | ABCG8 (ATP binding cassette subfamily G member 8)
0.51 | 2.8 | 0.866 | 0.616 | 0.438 | VTN (vitronectin)
0.382 | 1.44 | 0.215 | 0.174 | 0.571 | SMAP2 (small ArfGAP2)
-0.0614 | 1.52 | -0.104 | -0.118 | -0.0307 | NDST4 (N-deacetylase and N-sulfotransferase 4)
0.0504 | 2.91 | 0.0173 | -0.0798 | 0.0449 | HNRNPH1 (heterogeneous nuclear ribonucleoprotein H1)
0.382 | 3.88 | 0.366 | 0.294 | 0.222 | GALT (galactose-1-phosphate uridylyltransferase)
0.319 | 1.41 | 0.148 | 0.31 | 0.386 | PAPPA (pappalysin 1)
0.674 | 1.99 | 0.156 | 0.612 | 0.744 | NRIP2 (nuclear receptor interacting protein 2)
-0.632 | 2.26 | -0.649 | -0.529 | -0.706 | DHX15 (DEAH-box helicase 15)
-0.408 | 3.16 | -0.447 | -0.468 | -0.562 | MRPS25 (mitochondrial ribosomal protein S25)
0.525 | 2.31 | 0.551 | 0.501 | 0.655 | POMC (proopiomelanocortin)
0.204 | 1.7 | 0.385 | 0.473 | -0.13 | PAEP (progestagen associated endometrial protein)
-0.359 | 1.97 | -0.24 | -0.435 | -0.524 | USP3 (ubiquitin specific peptidase 3)
-0.182 | 1.72 | 0.102 | -0.693 | 0.361 | DNAH5 (dynein axonemal heavy chain 5)
0.524 | 1.61 | 0.402 | 0.354 | 0.819 | EDAR (ectodysplasin A receptor)
-0.336 | 2.02 | -0.222 | -0.426 | -0.251 | ERG28 (ergosterol biosynthesis 28 homolog)
